From the supplement of paper PMC8728848
This is one part of the list.

Columns and labels:
Experiment in all cases: glycan array binding signal (z-score within array); higher = stronger binding
Details in all cases: glycan notation: IUPAC condensed, linker removed
[1] = target: Fuc(a1-2)Gal(b1-4)[Fuc(a1-3)]GlcNAc
How it was run: (§1)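 Negative Z-scores can be read as non-binding. The Z-score is calculated within each array and then averaged across arrays of one protein sequence at different concentrations or buffers and across linkers. Arrays, 3228 in all, were curated from the Consortium for Functional Glycomics database and kept only where the protein sequence was available.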

[2] = target: Fuc(a1-2)Gal(b1-4)[Fuc(a1-3)]GlcNAc(b1-2)Man(a1-3)[Fuc(a1-2)Gal(b1-4)[Fuc(a1-3)]GlcNAc(b1-2)Man(a1-6)]Man(b1-4)GlcNAc(b1-4)GlcNAc
How it was run: as §1

[3] = target: Fuc(a1-2)Gal(b1-4)[Fuc(a1-3)]GlcNAc(b1-2)[Fuc(a1-2)Gal(b1-4)[Fuc(a1-3)]GlcNAc(b1-4)]Man(a1-3)[Fuc(a1-2)Gal(b1-4)[Fuc(a1-3)]GlcNAc(b1-2)Man(a1-6)]Man(b1-4)GlcNAc(b1-4)GlcNAc
How it was run: as §1

[4] = target: Fuc(a1-2)Gal(b1-4)[Fuc(a1-3)]GlcNAc(b1-3)Gal(b1-4)[Fuc(a1-3)]GlcNAc
How it was run: as §1

[5] = target: Fuc(a1-2)Gal(b1-4)[Fuc(a1-3)]GlcNAc(b1-3)Gal(b1-4)[Fuc(a1-3)]GlcNAc(b1-3)Gal(b1-4)[Fuc(a1-3)]GlcNAc
How it was run: as §1

[6] = target: Fuc(a1-2)Gal(b1-4)[Fuc(a1-3)]GlcNAc(b1-3)GalNAc
How it was run: as §1

[7] = target: Fuc(a1-2)Gal6S(b1-4)Glc
How it was run: as §1

[8] = target: Fuc(a1-2)Gal6S(b1-4)Glc6S
How it was run: as §1

[9] = target: Fuc(a1-2)Gal6S(b1-4)GlcNAc
How it was run: as §1

[10] = target: Fuc(a1-2)[Gal(a1-3)]Gal
How it was run: as §1

[11] = target: Fuc(a1-2)[Gal(a1-3)]Gal(b1-3)GalNAc
How it was run: as §1

[12] = target: Fuc(a1-2)[Gal(a1-3)]Gal(b1-3)GlcNAc
How it was run: as §1

[13] = target: Fuc(a1-2)[Gal(a1-3)]Gal(b1-3)GlcNAc(b1-2)Man(a1-3)[Fuc(a1-2)[Gal(a1-3)]Gal(b1-3)GlcNAc(b1-2)Man(a1-6)]Man(b1-4)GlcNAc(b1-4)GlcNAc
How it was run: as §1

[14] = target: Fuc(a1-2)[Gal(a1-3)]Gal(b1-3)GlcNAc(b1-2)Man(a1-3)[Fuc(a1-2)[Gal(a1-3)]Gal(b1-3)GlcNAc(b1-2)Man(a1-6)]Man(b1-4)GlcNAc(b1-4)[Fuc(a1-6)]GlcNAc
How it was run: as §1

[15] = target: Fuc(a1-2)[Gal(a1-3)]Gal(b1-3)GlcNAc(b1-3)GalNAc
How it was run: as §1

[16] = target: Fuc(a1-2)[Gal(a1-3)]Gal(b1-4)Glc
How it was run: as §1

[17] = target: Fuc(a1-2)[Gal(a1-3)]Gal(b1-4)GlcNAc
How it was run: as §1

[18] = target: Fuc(a1-2)[Gal(a1-3)]Gal(b1-4)GlcNAc(b1-2)Man(a1-3)[Fuc(a1-2)[Gal(a1-3)]Gal(b1-4)GlcNAc(b1-2)Man(a1-6)]Man(b1-4)GlcNAc(b1-4)GlcNAc
How it was run: as §1

[19] = target: Fuc(a1-2)[Gal(a1-3)]Gal(b1-4)GlcNAc(b1-2)Man(a1-3)[Fuc(a1-2)[Gal(a1-3)]Gal(b1-4)GlcNAc(b1-2)Man(a1-6)]Man(b1-4)GlcNAc(b1-4)[Fuc(a1-6)]GlcNAc
How it was run: as §1

[20] = target: Fuc(a1-2)[Gal(a1-3)]Gal(b1-4)GlcNAc(b1-3)GalNAc
How it was run: as §1

[21] = target: Fuc(a1-2)[Gal(a1-3)]Gal(b1-4)[Fuc(a1-3)]Glc
How it was run: as §1

[22] = target: Fuc(a1-2)[Gal(a1-3)]Gal(b1-4)[Fuc(a1-3)]GlcNAc
How it was run: as §1

[23] = target: Fuc(a1-2)[Gal(a1-3)]Gal(b1-4)[Fuc(a1-3)]GlcNAc(b1-3)GalNAc
How it was run: as §1

[24] = target: Fuc(a1-2)[Gal(a1-4)]Gal(b1-4)GlcNAc
How it was run: as §1

[25] = target: Fuc(a1-2)[GalNAc(a1-3)]Gal
How it was run: as §1

[26] = target: Fuc(a1-2)[GalNAc(a1-3)]Gal(b1-3)GalNAc(a1-3)[Fuc(a1-2)]Gal(b1-4)GlcNAc
How it was run: as §1

[27] = target: Fuc(a1-2)[GalNAc(a1-3)]Gal(b1-3)GlcNAc
How it was run: as §1

[28] = target: Fuc(a1-2)[GalNAc(a1-3)]Gal(b1-3)GlcNAc(b1-2)Man(a1-3)[Fuc(a1-2)[GalNAc(a1-3)]Gal(b1-3)GlcNAc(b1-2)Man(a1-6)]Man(b1-4)GlcNAc(b1-4)GlcNAc
How it was run: as §1

[29] = target: Fuc(a1-2)[GalNAc(a1-3)]Gal(b1-3)GlcNAc(b1-2)Man(a1-3)[Fuc(a1-2)[GalNAc(a1-3)]Gal(b1-3)GlcNAc(b1-2)Man(a1-6)]Man(b1-4)GlcNAc(b1-4)[Fuc(a1-6)]GlcNAc
How it was run: as §1

[30] = target: Fuc(a1-2)[GalNAc(a1-3)]Gal(b1-3)GlcNAc(b1-3)GalNAc
How it was run: as §1

[31] = target: Fuc(a1-2)[GalNAc(a1-3)]Gal(b1-4)Glc
How it was run: as §1

[32] = target: Fuc(a1-2)[GalNAc(a1-3)]Gal(b1-4)GlcNAc
How it was run: as §1

[33] = target: Fuc(a1-2)[GalNAc(a1-3)]Gal(b1-4)GlcNAc(b1-2)Man(a1-3)[Fuc(a1-2)[GalNAc(a1-3)]Gal(b1-4)GlcNAc(b1-2)Man(a1-6)]Man(b1-4)GlcNAc(b1-4)GlcNAc
How it was run: as §1

[34] = target: Fuc(a1-2)[GalNAc(a1-3)]Gal(b1-4)GlcNAc(b1-2)Man(a1-3)[Fuc(a1-2)[GalNAc(a1-3)]Gal(b1-4)GlcNAc(b1-2)Man(a1-6)]Man(b1-4)GlcNAc(b1-4)[Fuc(a1-6)]GlcNAc
How it was run: as §1

[35] = target: Fuc(a1-2)[GalNAc(a1-3)]Gal(b1-4)GlcNAc(b1-3)Gal(b1-4)GlcNAc
How it was run: as §1

[36] = target: Fuc(a1-2)[GalNAc(a1-3)]Gal(b1-4)GlcNAc(b1-3)Gal(b1-4)GlcNAc(b1-3)Gal(b1-4)GlcNAc
How it was run: as §1

[37] = target: Fuc(a1-2)[GalNAc(a1-3)]Gal(b1-4)GlcNAc(b1-3)GalNAc
How it was run: as §1

B1: MFG-E8 (Homo sapiens), Q08431 (protein)
chain: MPRPRLLAALCGALLCAPSLLVALDICSKNPCHNGGLCEEISQEVRGDVFPSYTCTCLKGYAGNHCETKCVEPLGLENGNIANSQIAASSVRVTFLGLQHWVPELARLNRAGMVNAWTPSSNDDNPWIQVNLLRRMWVTGVVTQGASRLASHEYLKAFKVAYSLNGHEFDFIHDVNKKHKEFVGNWNKNAVHVNLFETPVEAQYVRLYPTSCHTACTLRFELLGCELNGCANPLGLKNNSIPDKQITASSSYKTWGLHLFSWNPSYARLDKQGNFNAWVAGSYGNDQWLQVDLGSSKEVTGIITQGARNFGSVQFVASYKVAYSNDSANWTEYQDPRTGSSKIFPGNWDNHSHKKNLFETPILARYVRILPVAWHNRIALRLELLGC
glycan array binding signal (z-score) [1]: -0.378
glycan array binding signal (z-score) [2]: 2.88
glycan array binding signal (z-score) [3]: 2.94
glycan array binding signal (z-score) [4]: -0.446
glycan array binding signal (z-score) [5]: 0.4
glycan array binding signal (z-score) [6]: 1.79
glycan array binding signal (z-score) [7]: 0.012
glycan array binding signal (z-score) [8]: -0.22
glycan array binding signal (z-score) [9]: -0.745
glycan array binding signal (z-score) [10]: -0.258
glycan array binding signal (z-score) [11]: -0.43
glycan array binding signal (z-score) [12]: -0.12
glycan array binding signal (z-score) [13]: -0.131
glycan array binding signal (z-score) [14]: -0.115
glycan array binding signal (z-score) [15]: 0.636
glycan array binding signal (z-score) [16]: -0.686
glycan array binding signal (z-score) [17]: -0.715
glycan array binding signal (z-score) [18]: 1.34
glycan array binding signal (z-score) [19]: -0.651
glycan array binding signal (z-score) [20]: -0.553
glycan array binding signal (z-score) [21]: -0.687
glycan array binding signal (z-score) [22]: -0.307
glycan array binding signal (z-score) [23]: 1.66
glycan array binding signal (z-score) [24]: -0.762
glycan array binding signal (z-score) [25]: -0.746
glycan array binding signal (z-score) [26]: -0.024
glycan array binding signal (z-score) [27]: -0.635
glycan array binding signal (z-score) [28]: 1.38
glycan array binding signal (z-score) [29]: 0.357
glycan array binding signal (z-score) [30]: 0.634
glycan array binding signal (z-score) [31]: -0.52
glycan array binding signal (z-score) [32]: -0.524
glycan array binding signal (z-score) [33]: 0.369
glycan array binding signal (z-score) [34]: -0.617
glycan array binding signal (z-score) [35]: 1.74
glycan array binding signal (z-score) [36]: 0.291
glycan array binding signal (z-score) [37]: -0.702
